The other results are listed elsewhere or left out.
system: T1, CTL2-GFP (C. trachomatis L2/434/Bu, GFP-expressing); set-up: species or system HeLa; Intracellular C. trachomatis growth in HeLa cells, bulk GFP fluorescence relative to DMSO; conditions: bulk GFP, single well; 28.5 h, 10 µM; inhibitor
T1 construct: L2/434/Bu, GFP-expressing

| Structure (SMILES) | % of control remaining [%] |
| --- | --- |
| CCCn1c(NCc2cccc(OC)c2O)nc2ccccc21 [CBK133763] | 120.503 |
| Nc1nnc(-c2ccc(Oc3nc(N4CCOCC4)nc(N4CCOCC4)n3)cc2)s1 [CBK266305] | 173.616 |
| N#Cc1cccc(NC(=O)CN2CCN(C(=O)C3COc4ccccc4O3)CC2)c1 (centres unmarked) [CBK074779] | 130.501 |
| CCCCN(C=O)c1c(CC)nc2ccc(C(=O)NCC3CCCCC3)cn12 [CBK145708] | 139.331 |
| COC(=O)c1cc(C#N)c(=O)n(CC(=O)Nc2ccc(OC)c(OC)c2)c1 [CBK297926] | 139.405 |
| CCOc1ncccc1NC(=O)N(CC1CCOC1)C1CC1 (centres unmarked) [CBK305077] | 133.18 |
| O=C(c1cccc(NS(=O)(=O)Cc2ccccc2)c1)N1CCOCC1 [CBK038991] | 93.8528 |
| CCOC(=O)c1c(NC(=O)CNCc2cccnc2)sc2c1CCCC2 [CBK304577] | 132.242 |
| Cc1nc(-c2cccnc2)[nH]c(=O)c1CC(=O)N1CCSCC1 [CBK305944] | 138.706 |
| O=C(Cc1nn[nH]n1)Nc1ccc(F)c(Cl)c1 [CBK006384] | 103.974 |
| CCNC(=O)N[C@H]1C[C@@H](Cc2cc(CN(C)C)on2)C1(C)C [CBK289310] | 168.726 |
| CC(C)[C@H](CO)Nc1nccnc1-c1ccccc1F [CBK037987] | 99.76 |
| COc1ccc(C)cc1S(=O)(=O)n1ccc2c(CNC3CCN(C)CC3)cccc21 [CBK113308T] | 100.686 |
| CSCC(O)Cn1nc(O)cc(C)c1=O (centres unmarked) [CBK006293] | 146.103 |
| COc1cccc(C(=O)N2Cc3ccccc3CC2C(=O)O)c1 (centres unmarked) [CBK287150] | 125.98 |
| Cn1c2c(c(=O)n(C)c1=O)[C@@H]1C(C[C@](O)(COCc3ccccc3)[C@H]1O)C1(CCC1)N2 (some centres unmarked) [CBK303265] | 117.353 |
| O=C1/C(=C2/Sc3ccccc3N2CCCS(=O)(=O)O)SC(=S)N1c1ccccc1 [CBK260954G] | 100 |
| O=S(=O)(O)c1ccc(N/N=C/c2cccc(/C=N/Nc3ccc(S(=O)(=O)O)cc3)c2)cc1 [CBK278204N] | 114.763 |
| COc1ccc(Cl)cc1S(=O)(=O)N1CCC(C(N)=O)(N2CCCCC2)CC1 [CBK269571] | 96.6794 |
| Cc1onc(-c2ccccc2)c1NC(=O)Nc1cc2ccccc2c(Br)n1 [CBK105489] | 127.534 |
| O=C(Oc1ccc(N(C(=O)c2ccncc2)S(=O)(=O)c2cccc3cccnc23)cc1)c1ccncc1 [CBK267123] | 166.553 |
| CCN(CC)S(=O)(=O)c1ccc(C)c(C(=O)Oc2cccc(-c3cnc4ccccc4n3)c2)c1 [CBK264577] | 100 |
| O=[N+]([O-])c1ccc(CN2CCC(Oc3cncc(OCC4COc5ccccc5O4)n3)C2)cc1 (centres unmarked) [CBK084369] | 96.0124 |
| O=C(Cc1cn2ccsc2n1)NCCS(=O)(=O)N1CCc2ccccc21 [CBK304282] | 138.951 |
| COCC1(C)NC(=O)N(Cc2nn(-c3ccccc3)c3c2CCC3)C1=O (centres unmarked) [CBK306483] | 139.919 |
| COc1ccc(-c2cnc3[nH]c(=O)n(CC(C)(C)CO)c3n2)c(OC)c1OC [CBK064833] | 138.683 |

| Structure (SMILES) | % of control remaining [%] |
| --- | --- |
| CS(=O)(=O)Nc1ccc(C2=NN(S(C)(=O)=O)C(c3ccc4nccnc4c3)C2)cc1 (centres unmarked) [CBK267546] | 113.842 |
| CC(C)N(Cc1cnn(C)c1)C(=O)c1cc(C2CC2)nc2ccccc12 [CBK305325] | 124.318 |
| O=c1[nH]c2ccccc2n1CCCN1CCC[C@@H]1CN1CCCC1 [CBK137111T] | 133.574 |
| Cc1noc(C)c1C(=O)N1CCCCCC1c1nn(C)cc1Cl (centres unmarked) [CBK285106] | 102.46 |
| CC(C)c1c(O)c2ccccc2[nH]c1=O [CBK159988] | 119.072 |
| O=C(c1cccs1)N(Cc1ccco1)Cc1cc2ccccc2nc1O [CBK269602] | 97.3705 |
| CCc1ccc(CNC(=O)Cn2nnc(-c3ccc(CNCC4CC4)cc3)n2)cc1 [CBK161032C] | 150.865 |
| C#CCNC(=O)C1CCCN(c2nc3ccccc3n2C)C1 (centres unmarked) [CBK282336] | 97.9002 |
| O=C1NC2(CCc3ccccc31)CCN(C(=O)CCn1cccn1)C2 (centres unmarked) [CBK283352] | 127.33 |
| O=c1[nH]c2ccccc2c(O)c1C1=Nc2ccccc2S(=O)(=O)N1 [CBK019929] | 100 |
| O[C@@H]1CN(Cc2ccccc2F)CC[C@H]1N1CCCC1 [CBK282934] | 119.024 |
| COCCN(Cc1cc2cccc(C)c2nc1O)S(C)(=O)=O [CBK269395] | 105.068 |
| CC(NC(=O)c1ccc(-n2cccc2)cc1)c1ccccn1 (centres unmarked) [CBK296619] | 107.121 |
| O=C(Nc1cccc(-c2noc(CCc3ccccc3)n2)c1)c1cccs1 [CBK270225] | 128.165 |
| O=C(Cn1ccc2ccc(F)cc21)Nc1cccc(-n2cnnc2)c1 [CBK282570] | 82.9524 |
| N#C/C(C(=O)Nc1ccccc1)=C(/O)c1nn(-c2ccccc2)c2c1CSc1ccccc1-2 [CBK017685] | 100 |
| C(=N\Nc1ccc2nn(-c3ccccc3)nc2c1)/c1c[nH]c2ccccc12 [CBK261064] | 104.247 |
| COC(=O)c1ccccc1NC(=O)Cn1cncc1-c1ccc([N+](=O)[O-])cc1 [CBK266741] | 136.014 |
| CCCCC1CCC(C(=O)O)CC1 (centres unmarked) [CBK122493] | 121.978 |
| CC(=O)c1cccc(NC(=O)C2CCCN(S(=O)(=O)c3ccc(Cl)cc3)C2)c1 (centres unmarked) [CBK266847] | 152.856 |
| O=C1C(=CNCc2ccco2)C(=O)c2ccccc21 [CBK262688] | 101.041 |
| O=[N+]([O-])c1ccccc1S(=O)(=O)N1CCN(Cc2cccnc2)CC1 [CBK264168G] | 67.4999 |
| Cc1cccc(N(C)S(=O)(=O)c2ccc(N3CCCNCC3)c3ccccc23)c1C [CBK004430C] | 51.2431 |
| CCCn1c(SC(C)C(=O)c2cc(C)n(-c3ccc(Cl)cc3)c2C)n[nH]c1=O (centres unmarked) [CBK295595] | 88.9219 |
| C[C@H]1[C@@H]2[C@@H](O)C([C@H](C)C(=O)N3CCCC3)CC[C@@]2(C)CC[C@@H]1NC(=O)C1CC1 (some centres unmarked) [CBK289447] | 137.323 |
| CC(=O)Nc1ccc(CNC(=O)CN(C)Cc2nc(C3CC3)no2)cc1 [CBK306695] | 89.4475 |

Reprinted at random: 4 entries already listed.

| Structure (SMILES) | % of control remaining [%] |
| --- | --- |
| C#CCNC(=O)C1CCCN(c2nc3ccccc3n2C)C1 (centres unmarked) [CBK282336] | 97.9002 |
| CC(=O)Nc1ccc(CNC(=O)CN(C)Cc2nc(C3CC3)no2)cc1 [CBK306695] | 89.4475 |
| O=c1[nH]c2ccccc2c(O)c1C1=Nc2ccccc2S(=O)(=O)N1 [CBK019929] | 100 |
| CCCn1c(SC(C)C(=O)c2cc(C)n(-c3ccc(Cl)cc3)c2C)n[nH]c1=O (centres unmarked) [CBK295595] | 88.9219 |

(next part)

| Structure (SMILES) | % of control remaining [%] |
| --- | --- |
| N#Cc1ccc(-c2cnc(N)c(-c3ccc(NC(=O)CCN4CCCCC4)cc3)n2)cc1 [CBK116418] | 97.969 |
| COc1cccc(C(=O)N2CCN(C(=O)c3cccc(F)c3)CC2)c1OC [CBK263316] | 123.68 |
| NCCCCCCNc1ncnc2c1ncn2[C@H]1C[C@@H](O)[C@@H](CO)O1 [CBK201260] | 101.761 |
| Cc1cc(O)nc(C(C)N2CCOC(C(C)(C)C)C2)n1 (centres unmarked) [CBK304097] | 101.966 |
| Cc1cc(Oc2ccc(N(C)C)cc2)cc(C2CCCNC2)n1 (centres unmarked) [CBK283442] | 144.533 |
| COC(=O)CCN(Cc1nnc(C2CC2)o1)C(C)C [CBK304470] | 158.194 |
| c1ccc(-n2cc(-c3cncn3CCCN3CCCCC3)cn2)cc1 [CBK281465] | 129.317 |
| CC(=O)N1CCc2c([nH]c3c(C)cccc23)C12CCN(CCOc1ccccc1)C2 (centres unmarked) [CBK039646] | 100 |
| COc1cccc(NC(=O)N[C@H]2CCN3C(=O)[C@@H](Cc4ccccc4)NC(=O)[C@H]23)c1 [CBK289230] | 107.343 |
| CS(=O)(=O)c1ccc(-c2cccc(COC3CCN(C(=O)Cc4c[nH]cn4)CC3)c2)cc1 [CBK149515] | 98.5779 |
| O=C(NCCCN1CCOCC1)c1ccncc1 [CBK264561F] | 100 |
| COc1ccc(CN2CCN(c3nccnc3NS(C)(=O)=O)CC2)cc1 [CBK084273] | 97.3332 |
| Cn1cc(CN2CCC(CNc3ccccn3)C2)cn1 (centres unmarked) [CBK304705] | 119.609 |
| COCCn1c(CN2CCCC(C)C2)nc2c1c(=O)n(C)c(=O)n2C (centres unmarked) [CBK306063] | 134.319 |
| O=[N+]([O-])c1ccc(S(=O)(=O)CC(CN2CCCC2)N2CCCC2)cc1 (centres unmarked) [CBK266991] | 91.4825 |
| CC(=O)c1ccc(-c2nc(-c3ccc(Cl)cc3)cnc2N)cc1 [CBK064097] | 126.283 |
| Cc1c(C(=O)O)sc(S(=O)(=O)N2CCN(C(=O)c3ccc(C(C)(C)C)cc3)CC2)c1C(=O)O [CBK297119] | 156.228 |
| Cc1cc(C)cc(N(C(C)C(=O)Nc2ccc(C(F)(F)F)cc2)S(C)(=O)=O)c1 (centres unmarked) [CBK268834] | 115.594 |
| COc1ccc(Cl)cc1Nc1nc(N)nc(CC(=O)CSc2ccc(C)cc2)n1 [CBK265200] | 135.702 |
| CC(Oc1ccc(C#N)cc1)C(=O)NCC(C)(C)N1CCOCC1 (centres unmarked) [CBK304066] | 114.453 |
| CCN1CCCC1CNC(=O)c1cc(Br)cnc1N1CCOCC1 (centres unmarked) [CBK076213] | 100 |
| CC1CCc2nn(CCNC(=O)Cc3ccc(F)cc3)c(=O)cc2C1 (centres unmarked) [CBK284485] | 133.005 |
| Cc1c(C(=O)N(C)C2CCNCC2)nnn1-c1ccc2ncccc2c1 [CBK306500C] | 139.08 |
| COc1ccc(CNc2cnc3ccccc3c2)c(O)c1 [CBK293951] | 134.674 |
| C/C(O)=C1/C(=O)N(c2nc3ccccc3s2)N=C1CC(=O)O [CBK265828] | 141.475 |
